Data published in patent publication US20070258982A1.
No constants are given. Whether binding was seen depends on the method and setting. Some binding calls cover weakened binding; strength is not graded here.

Columns and labels:
murine IL-22 (murine) [1] = target: T1, murine IL-22 (murine) (UniProt Q9JJY9); experiment: SPR (BIA)
T1 sequence: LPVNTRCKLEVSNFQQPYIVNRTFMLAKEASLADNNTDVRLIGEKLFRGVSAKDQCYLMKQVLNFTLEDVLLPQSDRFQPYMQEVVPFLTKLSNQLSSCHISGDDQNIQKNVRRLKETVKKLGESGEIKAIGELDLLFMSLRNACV

murine IL-22 (murine) [2] = target: T1, murine IL-22 (murine); experiment: real-time biospecific interaction analysis (BIA)
murine IL-22 (murine) [3] = target: T1, murine IL-22 (murine); experiment: ELISA of serum IL-22 in psoriatic mice treated with 356A11
murine IL-22 (murine) [4] = target: T1, murine IL-22 (murine); experiment: sandwich ELISA of serum IL-22 in arthritic mice treated with 356A11

Measured: binding

B1: 356A11 human monoclonal anti-IL-22 antibody (Examples 10, 11, 14, 15) (antibody, V domains shown)
VH: QVQLVQSGAEVKKPGASVKVSCKASGYTFTNYYMHWVRQAPGQGLEWVGWINPYTGSAFYAQKFRGRVTMTRDTSISTAYMELSRLRSDDTAVYYCAREPEKFDSDDSDVWGRGTLVTVSS
VL: QAVLTQPPSVSGAPGQRVTISCTGSSSNIGAGYGVHWYQQLPGTAPKLLIYGDSNRPSGVPDRFSGSKSGTSASLAITGLQAEDEADYYCQSYDNSLSGYVFGGGTQLTVLG
binds: murine IL-22 (murine) [1] | murine IL-22 (murine) [2] | murine IL-22 (murine) [3] | murine IL-22 (murine) [4]
